Data: paper PMC7202509
Results are given in words; binding and its absence hold for the method and conditions named. In cells and extracts the contact can be indirect. Some entries that bind do so weakly or less than the wild type.

Amino acid sequences for entries named in this document (tags omitted). Residues count along the entry.
UniProt P38936: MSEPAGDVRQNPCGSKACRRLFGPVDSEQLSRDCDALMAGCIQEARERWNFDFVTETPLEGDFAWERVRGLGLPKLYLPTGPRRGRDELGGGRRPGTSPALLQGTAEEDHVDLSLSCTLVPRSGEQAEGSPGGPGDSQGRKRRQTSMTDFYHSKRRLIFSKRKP
UniProt P18065, residues 36-325: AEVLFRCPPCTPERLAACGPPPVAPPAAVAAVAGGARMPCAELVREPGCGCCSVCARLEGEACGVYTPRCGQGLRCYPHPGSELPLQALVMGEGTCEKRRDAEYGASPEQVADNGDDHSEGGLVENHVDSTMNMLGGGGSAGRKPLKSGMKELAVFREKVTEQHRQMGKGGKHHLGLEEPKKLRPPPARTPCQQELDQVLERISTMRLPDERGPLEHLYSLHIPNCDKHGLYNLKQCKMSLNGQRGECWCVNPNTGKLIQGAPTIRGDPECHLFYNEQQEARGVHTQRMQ
UniProt P42771: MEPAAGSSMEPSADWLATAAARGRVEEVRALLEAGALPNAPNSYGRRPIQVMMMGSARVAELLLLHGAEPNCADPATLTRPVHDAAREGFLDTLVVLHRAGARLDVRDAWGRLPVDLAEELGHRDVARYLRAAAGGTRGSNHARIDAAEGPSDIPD

Legend:
[1] = biological target: p21CIP1/WAF1 (human (endogenous in psoriatic keratinocytes)) (UniProt P38936); assay: co-IP; endogenous proteins in lysates of pso KC, left untreated or treated with M4 cytokines for 6 hours; EIA lysis buffer (250 mM NaCl, 50 mM Hepes pH 7.5, 0.1% NP-40, 5 mM EDTA); IP with anti-IGFBP2 or anti-p21 overnight, protein A/G beads, goat or mouse IgG as negative control; Western blot with anti-IGFBP2, -p21 or -p16
[2] = biological target: Insulin-like growth factor binding protein 2 (human (endogenous in psoriatic keratinocytes)) (UniProt P18065); assay: as above

## Insulin-like growth factor binding protein 2 (from UniProt P18065 36-325)
[1]
  binding: binds

## p16INK4a (from UniProt P42771 1-156)
[2]
  binding: no binding

## p21CIP1/WAF1 (from UniProt P38936 1-164)
[2]
  binding: binds
